What follows is the remainder of the data, with few or none of the targets with a hit. The data scatter; read single values as rough. This is a selection; strong and weak results do not stand in their true shares.

Protein sequences, listed by entry. Tags and fused reporters are not part of them. Lines headed by an entry give the natural chain unless they say otherwise; changes in a name come on top.
UniProt Q15075: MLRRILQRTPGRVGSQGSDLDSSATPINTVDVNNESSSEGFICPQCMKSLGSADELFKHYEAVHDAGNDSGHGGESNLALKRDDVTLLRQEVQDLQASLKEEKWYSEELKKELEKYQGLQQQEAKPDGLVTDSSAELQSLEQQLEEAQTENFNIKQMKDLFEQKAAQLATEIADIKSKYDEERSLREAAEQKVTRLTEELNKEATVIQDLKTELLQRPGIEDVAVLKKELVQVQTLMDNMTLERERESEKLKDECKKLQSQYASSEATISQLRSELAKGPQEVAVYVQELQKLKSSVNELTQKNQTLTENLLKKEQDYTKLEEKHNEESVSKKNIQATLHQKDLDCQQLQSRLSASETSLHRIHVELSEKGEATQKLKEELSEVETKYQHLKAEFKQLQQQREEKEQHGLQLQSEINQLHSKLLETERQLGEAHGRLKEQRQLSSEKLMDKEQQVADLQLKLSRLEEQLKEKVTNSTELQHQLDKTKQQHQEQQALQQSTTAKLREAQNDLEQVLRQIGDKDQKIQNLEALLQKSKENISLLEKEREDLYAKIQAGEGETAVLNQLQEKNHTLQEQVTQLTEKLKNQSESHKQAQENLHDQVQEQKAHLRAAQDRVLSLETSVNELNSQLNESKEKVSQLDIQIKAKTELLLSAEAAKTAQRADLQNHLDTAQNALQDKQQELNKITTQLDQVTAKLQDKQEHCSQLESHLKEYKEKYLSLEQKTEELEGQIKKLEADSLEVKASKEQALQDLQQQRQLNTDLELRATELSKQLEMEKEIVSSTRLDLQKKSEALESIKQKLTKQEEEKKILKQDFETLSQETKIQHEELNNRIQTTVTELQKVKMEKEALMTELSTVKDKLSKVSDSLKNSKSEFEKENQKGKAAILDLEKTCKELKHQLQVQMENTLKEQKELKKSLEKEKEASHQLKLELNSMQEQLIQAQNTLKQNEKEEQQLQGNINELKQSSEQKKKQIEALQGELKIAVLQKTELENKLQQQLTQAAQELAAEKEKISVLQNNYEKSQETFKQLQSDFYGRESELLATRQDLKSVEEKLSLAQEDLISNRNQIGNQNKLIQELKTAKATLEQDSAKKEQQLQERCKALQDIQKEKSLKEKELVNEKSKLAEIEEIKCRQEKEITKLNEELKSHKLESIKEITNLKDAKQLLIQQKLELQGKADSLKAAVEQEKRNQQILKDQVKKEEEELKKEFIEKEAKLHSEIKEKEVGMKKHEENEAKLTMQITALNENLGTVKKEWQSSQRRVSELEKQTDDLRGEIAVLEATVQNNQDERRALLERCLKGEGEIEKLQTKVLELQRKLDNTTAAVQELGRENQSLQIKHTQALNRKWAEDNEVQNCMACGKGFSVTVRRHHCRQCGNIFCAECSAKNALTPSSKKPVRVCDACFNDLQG
UniProt Q32MZ4: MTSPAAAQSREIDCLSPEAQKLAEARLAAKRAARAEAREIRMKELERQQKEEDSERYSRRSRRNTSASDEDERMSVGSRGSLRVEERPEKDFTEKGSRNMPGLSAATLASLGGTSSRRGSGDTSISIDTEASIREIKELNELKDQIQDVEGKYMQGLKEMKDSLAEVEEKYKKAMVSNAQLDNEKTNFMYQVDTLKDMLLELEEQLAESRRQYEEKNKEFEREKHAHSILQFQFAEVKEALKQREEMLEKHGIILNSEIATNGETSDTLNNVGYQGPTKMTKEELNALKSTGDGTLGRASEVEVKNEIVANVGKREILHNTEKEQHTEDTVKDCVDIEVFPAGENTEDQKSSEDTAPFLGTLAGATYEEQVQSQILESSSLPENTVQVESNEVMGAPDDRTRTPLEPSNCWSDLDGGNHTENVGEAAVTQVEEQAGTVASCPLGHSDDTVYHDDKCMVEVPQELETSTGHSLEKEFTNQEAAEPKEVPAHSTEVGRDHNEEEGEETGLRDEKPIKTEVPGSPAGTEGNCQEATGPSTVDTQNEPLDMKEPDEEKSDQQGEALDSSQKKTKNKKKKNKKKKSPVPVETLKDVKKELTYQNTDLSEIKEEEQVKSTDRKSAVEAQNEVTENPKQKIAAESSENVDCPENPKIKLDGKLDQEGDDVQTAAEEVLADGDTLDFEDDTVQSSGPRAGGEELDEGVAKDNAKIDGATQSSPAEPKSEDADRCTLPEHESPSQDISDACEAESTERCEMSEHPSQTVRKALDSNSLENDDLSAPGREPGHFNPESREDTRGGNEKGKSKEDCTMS
UniProt Q15386: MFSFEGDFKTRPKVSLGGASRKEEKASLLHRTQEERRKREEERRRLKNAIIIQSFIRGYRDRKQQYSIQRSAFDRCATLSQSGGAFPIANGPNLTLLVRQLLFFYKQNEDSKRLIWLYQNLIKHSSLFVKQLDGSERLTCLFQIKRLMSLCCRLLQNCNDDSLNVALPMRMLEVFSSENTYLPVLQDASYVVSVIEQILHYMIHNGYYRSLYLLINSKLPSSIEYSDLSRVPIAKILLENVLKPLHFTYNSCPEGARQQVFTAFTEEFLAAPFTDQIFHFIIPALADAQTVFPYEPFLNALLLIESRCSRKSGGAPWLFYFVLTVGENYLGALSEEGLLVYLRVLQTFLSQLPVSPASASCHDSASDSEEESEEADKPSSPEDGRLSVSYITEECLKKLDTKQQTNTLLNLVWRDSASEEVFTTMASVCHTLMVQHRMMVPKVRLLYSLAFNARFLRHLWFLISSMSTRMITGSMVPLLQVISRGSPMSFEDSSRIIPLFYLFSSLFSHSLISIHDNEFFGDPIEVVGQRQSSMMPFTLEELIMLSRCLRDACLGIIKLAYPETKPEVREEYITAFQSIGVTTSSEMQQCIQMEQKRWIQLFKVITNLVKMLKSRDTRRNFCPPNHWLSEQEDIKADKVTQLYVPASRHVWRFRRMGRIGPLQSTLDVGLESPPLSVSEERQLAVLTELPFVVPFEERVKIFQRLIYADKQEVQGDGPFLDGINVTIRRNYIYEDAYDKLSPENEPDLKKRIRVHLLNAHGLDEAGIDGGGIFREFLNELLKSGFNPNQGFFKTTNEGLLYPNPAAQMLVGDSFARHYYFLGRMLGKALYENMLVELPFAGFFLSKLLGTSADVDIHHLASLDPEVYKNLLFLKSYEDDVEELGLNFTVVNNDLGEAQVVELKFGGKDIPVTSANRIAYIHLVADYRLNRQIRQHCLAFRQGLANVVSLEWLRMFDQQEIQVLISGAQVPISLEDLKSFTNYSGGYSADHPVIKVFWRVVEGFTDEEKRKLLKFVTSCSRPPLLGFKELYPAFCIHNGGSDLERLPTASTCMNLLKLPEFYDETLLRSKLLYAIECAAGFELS
UniProt Q29RF7: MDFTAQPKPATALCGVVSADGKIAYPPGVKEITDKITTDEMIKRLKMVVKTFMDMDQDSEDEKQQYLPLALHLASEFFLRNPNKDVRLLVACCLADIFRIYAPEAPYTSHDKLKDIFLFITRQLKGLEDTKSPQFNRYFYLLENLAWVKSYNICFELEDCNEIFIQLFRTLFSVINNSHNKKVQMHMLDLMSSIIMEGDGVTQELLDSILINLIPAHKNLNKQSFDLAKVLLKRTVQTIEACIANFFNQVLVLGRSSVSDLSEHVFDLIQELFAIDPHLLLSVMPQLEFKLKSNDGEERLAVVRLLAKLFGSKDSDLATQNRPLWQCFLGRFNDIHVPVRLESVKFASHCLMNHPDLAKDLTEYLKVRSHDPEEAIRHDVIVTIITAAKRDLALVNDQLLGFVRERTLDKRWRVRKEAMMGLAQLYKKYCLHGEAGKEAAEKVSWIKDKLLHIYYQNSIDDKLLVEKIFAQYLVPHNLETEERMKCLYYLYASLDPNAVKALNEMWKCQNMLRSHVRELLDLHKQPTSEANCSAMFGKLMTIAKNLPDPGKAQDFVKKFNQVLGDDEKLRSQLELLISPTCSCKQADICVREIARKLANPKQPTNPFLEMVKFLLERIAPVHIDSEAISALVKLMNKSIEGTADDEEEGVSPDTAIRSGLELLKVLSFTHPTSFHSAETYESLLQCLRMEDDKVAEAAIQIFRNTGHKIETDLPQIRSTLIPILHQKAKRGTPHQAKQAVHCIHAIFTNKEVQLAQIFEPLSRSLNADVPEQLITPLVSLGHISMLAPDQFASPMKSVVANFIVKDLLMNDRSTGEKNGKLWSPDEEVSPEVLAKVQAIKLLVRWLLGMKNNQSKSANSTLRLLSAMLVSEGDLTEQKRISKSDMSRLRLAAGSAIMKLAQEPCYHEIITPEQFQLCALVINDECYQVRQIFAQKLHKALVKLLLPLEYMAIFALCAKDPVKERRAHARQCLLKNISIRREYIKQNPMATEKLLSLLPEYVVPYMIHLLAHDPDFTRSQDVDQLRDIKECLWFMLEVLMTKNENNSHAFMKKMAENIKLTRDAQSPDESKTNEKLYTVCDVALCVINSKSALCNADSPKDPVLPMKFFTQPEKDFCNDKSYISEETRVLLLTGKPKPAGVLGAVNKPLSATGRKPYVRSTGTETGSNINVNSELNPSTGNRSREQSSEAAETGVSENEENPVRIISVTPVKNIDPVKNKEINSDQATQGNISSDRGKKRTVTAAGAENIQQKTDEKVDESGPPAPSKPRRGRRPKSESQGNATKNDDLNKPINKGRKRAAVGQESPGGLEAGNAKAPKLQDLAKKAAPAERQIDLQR
UniProt Q49AR2: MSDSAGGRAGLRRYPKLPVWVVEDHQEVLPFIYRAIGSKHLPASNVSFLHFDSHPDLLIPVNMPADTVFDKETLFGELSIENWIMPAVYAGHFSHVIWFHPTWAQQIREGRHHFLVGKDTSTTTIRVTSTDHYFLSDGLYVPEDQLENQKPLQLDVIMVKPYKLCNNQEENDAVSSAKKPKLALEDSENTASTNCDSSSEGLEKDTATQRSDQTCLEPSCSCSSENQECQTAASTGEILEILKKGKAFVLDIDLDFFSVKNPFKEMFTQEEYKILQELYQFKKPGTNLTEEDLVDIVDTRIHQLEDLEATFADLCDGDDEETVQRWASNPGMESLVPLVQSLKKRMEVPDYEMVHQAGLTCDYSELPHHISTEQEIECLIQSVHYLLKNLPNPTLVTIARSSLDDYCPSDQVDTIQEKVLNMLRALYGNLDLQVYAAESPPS
UniProt Q15021, whole entry, looked up: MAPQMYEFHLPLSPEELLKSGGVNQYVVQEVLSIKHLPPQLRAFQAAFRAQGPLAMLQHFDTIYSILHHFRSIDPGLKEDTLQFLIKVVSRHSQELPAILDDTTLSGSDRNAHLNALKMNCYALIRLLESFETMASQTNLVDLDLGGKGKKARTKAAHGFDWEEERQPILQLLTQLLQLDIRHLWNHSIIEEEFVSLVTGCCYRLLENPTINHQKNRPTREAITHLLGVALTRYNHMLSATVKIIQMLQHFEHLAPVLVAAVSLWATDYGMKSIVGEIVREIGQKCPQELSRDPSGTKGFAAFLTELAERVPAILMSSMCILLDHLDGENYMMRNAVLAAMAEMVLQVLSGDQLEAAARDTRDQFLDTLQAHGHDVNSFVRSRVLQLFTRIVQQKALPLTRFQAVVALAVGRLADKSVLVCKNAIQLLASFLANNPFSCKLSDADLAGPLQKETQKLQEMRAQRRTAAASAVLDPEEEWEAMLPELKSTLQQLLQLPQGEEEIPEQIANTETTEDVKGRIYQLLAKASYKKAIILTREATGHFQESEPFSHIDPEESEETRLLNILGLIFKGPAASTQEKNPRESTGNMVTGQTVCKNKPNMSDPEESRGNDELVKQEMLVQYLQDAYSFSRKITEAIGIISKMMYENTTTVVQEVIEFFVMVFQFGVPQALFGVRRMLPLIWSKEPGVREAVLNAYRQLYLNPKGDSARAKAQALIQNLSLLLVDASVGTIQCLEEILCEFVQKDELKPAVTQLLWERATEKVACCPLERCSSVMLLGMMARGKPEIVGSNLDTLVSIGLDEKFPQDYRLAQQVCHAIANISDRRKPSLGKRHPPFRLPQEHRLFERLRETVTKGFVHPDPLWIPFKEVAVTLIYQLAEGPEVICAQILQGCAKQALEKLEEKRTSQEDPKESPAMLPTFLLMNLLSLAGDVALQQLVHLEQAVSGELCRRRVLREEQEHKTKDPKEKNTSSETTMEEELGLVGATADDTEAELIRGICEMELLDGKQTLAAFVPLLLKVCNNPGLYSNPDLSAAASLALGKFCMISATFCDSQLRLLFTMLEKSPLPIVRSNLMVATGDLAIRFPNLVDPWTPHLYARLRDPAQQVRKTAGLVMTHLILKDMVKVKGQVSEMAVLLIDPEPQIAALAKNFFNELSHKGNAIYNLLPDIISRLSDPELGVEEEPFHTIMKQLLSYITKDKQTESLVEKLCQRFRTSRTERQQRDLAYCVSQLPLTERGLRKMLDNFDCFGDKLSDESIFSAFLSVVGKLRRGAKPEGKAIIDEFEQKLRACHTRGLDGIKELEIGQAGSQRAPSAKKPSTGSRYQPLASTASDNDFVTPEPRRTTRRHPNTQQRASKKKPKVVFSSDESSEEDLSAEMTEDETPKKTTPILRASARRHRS

Compound in this assay: COC(=O)/C=C/c1ccccc1 [methyl cinnamate]
The assay can be described thus: log2 ratio of iodoacetamide-alkyne labeling of the cysteine site, DMSO over compound (competition); higher = stronger covalent engagement of the cysteine by the compound, active = 1 or more. Conditions: 500 µM; treatment time 1 h; system: HEK293T cell lysate. Summed up: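 For each cysteine, the log2 competition ratio is mean control-channel reporter intensity over mean compound-channel reporter intensity. HEK293T lysate (2 mg/mL) was exposed to vehicle or electrophile (500 µM, 1 h, ambient temperature), labelled with iodoacetamide alkyne (1 h), clicked to sCIP-TMT reagents, digested overnight with trypsin at 37 °C, streptavidin-enriched and analysed by Orbitrap Eclipse LC-MS/MS with FAIMS and FragPipe. Cysteines quantified in only one of three replicates, each with duplicate channels, were excluded.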
Take EEA1 C1402 (UniProt Q15075): the “log2 ratio of iodoacetamide-alkyne labeling” value (from here on “log2 ratio”) is inactive: 0.124. PDIA6 C190 (UniProt Q15084): the “log2 ratio” value was inactive: -0.00875. The figure for LRRFIP1 C334 (UniProt Q32MZ4) is inactive: -0.24; for RABEP1 C350 (UniProt Q15276) it is inactive: 0.114; for UBE3C C622 (UniProt Q15386) it is inactive: 0.174.

As to SAFB C404 (UniProt Q15424), the “log2 ratio” value is inactive: 0.387.

PDS5A C93 (UniProt Q29RF7): the “log2 ratio” value is inactive: -0.079. For TNIP1 C212 (UniProt Q15025), the “log2 ratio” value is inactive: 0.179. On to PDS5A C532 (UniProt Q29RF7), for which the “log2 ratio” value is inactive: 0.115. CCDC6 C27 (UniProt Q16204): the “log2 ratio” value was inactive: 0.366. Next, UniProt Q1ED39_C78: inactive: 0.235; LRRC14 C15 (UniProt Q15048): inactive: 0.291. Next, PPA1 C270 (UniProt Q15181): inactive: 0.157; RABEP1 C533 (UniProt Q15276): inactive: 0.12. Turning to PDS5A C1116 (UniProt Q29RF7), the “log2 ratio” value is inactive: 0.18. Take SHROOM1 C376 (UniProt Q2M3G4): the “log2 ratio” value is inactive: -0.0353. Next, KIF14 C47 (UniProt Q15058): inactive: 0.321. The figure for GLYR1 C231 (UniProt Q49A26) is inactive: -0.274. Next, C5orf22 C195 (UniProt Q49AR2): inactive: 0.357.

For KIF14 C471 (UniProt Q15058), the “log2 ratio” value is inactive: 0.177. Next, NCAPD2 C816 (UniProt Q15021): inactive: 0.192; SF1 C279 (UniProt Q15637): inactive: 0.00972. Next, DLGAP5 C129 (UniProt Q15398): inactive: 0.255; RBBP7 C116 (UniProt Q16576): inactive: -0.0166. LLGL1 C483 (UniProt Q15334): the “log2 ratio” value was inactive: 0.0381.

On to PDS5A C1084 (UniProt Q29RF7), for which the “log2 ratio” value is inactive: 0.0246. For the target PDCD4 C150 (UniProt Q53EL6), the “log2 ratio” value is inactive: 0.537. Regarding SUZ12 C46 (UniProt Q15022), the “log2 ratio” value is inactive: -0.171. In the case of LLGL1 C1059 (UniProt Q15334), the “log2 ratio” value is inactive: 0.258. Take UniProt Q15370_C89: the “log2 ratio” value is inactive: -0.379. Next, PPA1 C114 (UniProt Q15181): inactive: 0.102. Turning to TRIP6 C402 (UniProt Q15654), the “log2 ratio” value was inactive: 0.115.

With EEA1 C1299 (UniProt Q15075), the “log2 ratio” value is inactive: -0.0883. Next, ACOX1 C199 (UniProt Q15067): inactive: -0.00385; HERC1 C1941 (UniProt Q15751): inactive: 0.174.

Take PDIA6 C193 (UniProt Q15084): the “log2 ratio” value was inactive: -0.0138. The figure for TBC1D10B C573 (UniProt Q4KMP7) is inactive: 0.174.

These data come from the supplement of paper PMC11006884.
